# According to patent US20090124659A1, “Combination therapy using 1-aminocyclohexane derivatives and acetylcholinesterase and inhibitors” (priority 2002, published 2009):
# Where a name gives a salt, the structure may show the parent alone.
# Tests used:
# [1] = 5 mg/day for 28 days in healthy subjects; cited from earlier work
# clinical = details: both, human, in vivo, 10 mg, time of peak donepezil plasma concentration (Tmax), once daily multiple dosing of 10 mg donepezil
# [2] = 10 mg donepezil daily, single 10 mg memantine
smiles,measurement,setting,value
"COc1cc2c(cc1OC)C(=O)C(CC1CCN(Cc3ccccc3)CC1)C2 (racemic) [donepezil, (R,S)-1-benzyl-4-[(5,6-dimethoxy-1-indanon)-2yl]-methylpiperidine hydrochloride]",peak plasma concentrations (Cmax),[1],34.1 ng/mL
same,decrease of donepezil CL/F with memantine compared to donepezil alone,[2],15%
same,increase of mean donepezil AUC0-24 with memantine compared to donepezil alone,[2],9%
same,increase of mean donepezil Cmax with memantine compared to donepezil alone,[2],13%
same,90% confidence interval for the log-transformed donepezil Cmax (with memantine versus alone),all 19 completers,104.2-126.5%
same,Tmax,clinical; with memantine 10 mg,3.3 h
same,Tmax,clinical; without memantine,3.4 h
